Measurements published in the supplement of paper PMC7411640.
Where a name gives a salt, the structure may show the parent alone. Some of the results follow. Repeats in this data set agree poorly, so a single value says little.

These compounds were tested on MDA-MB-468 (assay: phospho-S6 immunofluorescence (DAPI-normalised), per-plate z-score; higher = higher phospho-S6 signal (less pathway suppression)). Conditions: compound 0.1 µM; co-treatment: lapatinib 1 uM; 24 h.
Description: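 GPCR-targeted compound library (MedChemExpress HY-L006) tested on MDA-MB-468 PTEN-null TNBC cells in 384-well plates at 0.1, 1 or 10 uM, combined with vehicle, GDC0941 450 nM or lapatinib 1 uM, for 24 h. Phospho-S6 (S240/244) immunofluorescence normalised to DAPI and expressed as a per-plate z-score; values are the mean of biological triplicates.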

| SMILES | phospho-S6 immunofluorescence (z-score) |
| --- | --- |
| Cc1cncc(CN2CCC(=C3c4ccc(Cl)cc4CCc4cccnc43)CC2)c1 [Rupatadine (Fumarate)] | 0.14 |
| Cn1cc(C(=O)[C@@H]2CCc3[nH]cnc3C2)c2ccccc21 [Ramosetron (Hydrochloride)] | -0.85 |
| N#Cc1cc(NC(=O)C(=O)O)c(Cl)c(NC(=O)C(=O)O)c1 [Lodoxamide] | 0.47 |
| OCCOCCN1CCN(C(c2ccccc2)c2ccc(Cl)cc2)CC1 (stereo not given) [Hydroxyzine (dihydrochloride)] | -1.21 |
| COc1ccc2c(c1OC)C(=O)O[C@@H]2[C@H]1c2c(cc3c(c2OC)OCO3)CCN1C [Noscapine] | 0.69 |
| CCc1nn(CCCN2CCN(c3cccc(Cl)c3)CC2)c(=O)n1CCOc1ccccc1 [Nefazodone (hydrochloride)] | -0.08 |
| CN(C)CCCN1c2ccccc2Sc2ccccc21 [Promazine (hydrochloride)] | -0.62 |
| CN(C)CCC(c1ccc(Cl)cc1)c1ccccn1 (stereo not given) [Chlorpheniramine (maleate)] | -1.36 |
| CCCCc1nc(C)c(CC(=S)N(C)C)c(=O)n1Cc1ccc(-c2ccccc2-c2nnn[nH]2)cc1 [Fimasartan] | 1.11 |
| C[N+]1(C)CCC(=C(c2ccccc2)c2ccccc2)CC1 [Diphenmanil (methylsulfate)] | 0.17 |
| OCCOCCN1CCN(C2=Nc3ccccc3Sc3ccccc32)CC1 [Quetiapine (fumarate)] | 0.4 |
| COc1cc2nc(N3CCN(C(=O)c4ccco4)CC3)nc(N)c2cc1OC [Prazosin (hydrochloride)] | -0.1 |
| N=C(N)NCCCCN [Agmatine (sulfate)] | 0.3 |
| CN1CCN(C(=O)c2cc3cc(Cl)ccc3[nH]2)CC1 | 0.14 |
| CN1CCc2cc(Cl)c(O)cc2[C@@H](c2ccccc2)C1 | 0.55 |
| COc1cc2nc(N3CCN(C(=O)C4CCCO4)CC3)nc(N)c2cc1OC (stereo not given) [Terazosin (hydrochloride dihydrate)] | 1.09 |
| NCCc1c[nH]cn1 [Histamine] | 0.57 |
| CCN1CCCC1CNC(=O)c1cc(S(N)(=O)=O)ccc1OC (stereo not given) [Sulpiride] | 0.12 |
| COCCOc1ccc(N2CCN(CCn3ncc4c3nc(N)n3nc(-c5ccco5)nc43)CC2)cc1 [Preladenant] | -0.86 |
| CCN(CC)CCNC(=O)c1cc(Cl)c(N)cc1OC [Metoclopramide (hydrochloride hydrate)] | -0.2 |

| SMILES | phospho-S6 immunofluorescence (z-score) |
| --- | --- |
| Nc1ccc(/C=C/c2cccc(C(=O)O)n2)cc1 | 0.36 |
| CC(C)C(=O)OCC(=O)[C@@]12O[C@H](C3CCCCC3)O[C@@H]1C[C@H]1[C@@H]3CCC4=CC(=O)C=C[C@]4(C)[C@H]3[C@@H](O)C[C@@]12C [Ciclesonide] | -0.33 |
| N#Cc1ccc2[nH]cc(CCCCN3CCN(c4ccc5oc(C(N)=O)cc5c4)CC3)c2c1 [Vilazodone] | 0.97 |
| Cc1ccc(Sc2ccccc2N2CCNCC2)c(C)c1 [Vortioxetine] | -0.89 |
| CN(C)CCCN1c2ccccc2Sc2ccc(Cl)cc21 [Chlorpromazine (hydrochloride)] | -0.04 |
| Clc1ccc(Cn2c(CN3CCCC3)nc3ccccc32)cc1 [Clemizole (hydrochloride)] | 0.03 |
| CCCc1nc(C(C)(C)O)c(C(=O)O)n1Cc1ccc(-c2ccccc2-c2nnn[nH]2)cc1 [Olmesartan] | -0.83 |
| CC(N)(C(=O)O)c1ccc(C(=O)O)cc1 (racemic) | 0.74 |
| c1cc(CN2CCCNCCNCCCNCC2)ccc1CN1CCCNCCNCCCNCC1 [Plerixafor (octahydrochloride)] | -0.81 |
| CN1CCC[C@@H]1CCO[C@](C)(c1ccccc1)c1ccc(Cl)cc1 [Clemastine (fumarate)] | 1.25 |
| Cc1nc2c([nH]1)-c1ccccc1N(C(=O)c1ccc(NC(=O)c3ccccc3-c3ccccc3)cc1)CC2 [Conivaptan (hydrochloride)] | -1.33 |
| COc1nc(C)cnc1NS(=O)(=O)c1cccnc1-c1ccc(-c2nnco2)cc1 [Zibotentan] | -1.64 |
| O=C(Nc1ccccc1)C12CC1C(=NO)c1ccccc1O2 (stereo not given) | 0.59 |
| O=C(CCCN1CCC(O)(c2ccc(Cl)cc2)CC1)c1ccc(F)cc1 [Haloperidol] | 0.15 |
| COc1ccc2cc(OCC3(C(=O)O)CN(C(=O)c4ccc(F)cc4)C3)ccc2c1 | -0.5 |
| CC(C)C[C@H](NC(=O)CNC(=O)[C@H](Cc1ccc(O)cc1)NC(=O)[C@H](CO)NC(=O)[C@H](Cc1c[nH]c2ccccc12)NC(=O)[C@H](Cc1cnc[nH]1)NC(=O)[C@@H]1CCC(=O)N1)C(=O)N[C@@H](CCCNC(=N)N)C(=O)N1CCC[C@H]1C(=O)NCC(N)=O [Gonadorelin (acetate)] | -0.4 |
| CN1CCC(=C2c3ccccc3CC(=O)c3sccc32)CC1 [Ketotifen (fumarate)] | -0.6 |
| CN1CCC(OC(c2ccccc2)c2ccccc2)CC1 [Diphenylpyraline (hydrochloride)] | 0.26 |
| Cn1c(=O)c2nc[nH]c2n(C)c1=O [Theophylline] | 0.04 |
| CC(=O)OCC(=O)[C@@]1(O)[C@H](C)C[C@H]2[C@@H]3CCC4=CC(=O)C=C[C@]4(C)[C@@]3(F)[C@@H](O)C[C@@]21C [Dexamethasone (acetate)] | 0.68 |

Taken from the results shown, 2 compounds:

| SMILES | phospho-S6 immunofluorescence (z-score) |
| --- | --- |
| c1cc(CN2CCCNCCNCCCNCC2)ccc1CN1CCCNCCNCCCNCC1 [Plerixafor (octahydrochloride)] | -0.81 |
| CN1CCC[C@@H]1CCO[C@](C)(c1ccccc1)c1ccc(Cl)cc1 [Clemastine (fumarate)] | 1.25 |
